Values quoted from earlier work, collected in patent US11045444B2, “Composition and method for promoting eyelash and eyebrow growth exclusively containing naturally sourced ingredients” (Plume Cosmetics Inc., priority 2016, dated 2021).
At least one structure is not confirmed: it was looked up by name or label, or the drawing left a doubt.

Conditions: solubilized with modified cyclodextrins

C=C[C@@]1(C)CC(=O)[C@]2(O)[C@@]3(C)[C@@H](O)CCC(C)(C)[C@@H]3[C@H](O)[C@H](OC(C)=O)[C@@]2(C)O1 [forskolin]
clear aqueous solution concentration: ≥ 1%
